From PubChem BioAssay AID330 (DTP/NCI, 2004) come the findings set out here.

The list shows only some results of the screen, not a fair sample: it gathers tests that were run many times, whatever their T/C, doses with no T/C, and many T/C values between a quarter and a half above the control. Other doses and runs of a compound stand elsewhere. T/C is the treated group as % of the vehicle group. Some entries give survivors of the animals treated and no T/C: the source holds a T/C of zero for them, seemingly a mark for toxic or unscored doses. Some survivor counts are full or nearly so, which does not show that the dose was tolerated: survival well below the control is almost never listed, so the zero probably covers shortened survival too. Survivors were counted at the toxicity check, usually on the fifth day, unless a day is given; later deaths do not show. Schedules are NCI's codes, taken here to give the interval after Q, in days (D) or hours (H), and the number of doses after X. Counts like (3×) count equal records among those shown. Some entries were tested several times; their values stand side by side, smallest first. Where survival is the endpoint, this PubChem deposit counts one and a half times the control or more as active, and values a quarter to a half above the control carry no call in these data; other NCI protocols may use other cut-offs. Some T/C values are followed by the survivors on the day toxicity was checked, most often the fifth; without a count, all were alive then.

The assay relates to P388 leukemia ip, CD2F1 mice, survival T/C. Description: NCI In Vivo Anticancer Drug Screen. Data for tumor model P388 Leukemia (intraperitoneal) in CD2F1 (CDF1) mice. The conditions noted are these: T/C endpoint: median survival time, higher T/C = longer survival.
Setting [1] is: dose: 50.0 mg/kg/injection, schedule: Q01DX009 (ip), vehicle: saline.
Where [2] appears, read: dose: 100.0 mg/kg/injection, schedule: Q01DX009 (ip), vehicle: saline.
The mark [3] stands for this setting: dose: 200.0 mg/kg/injection, schedule: Q01DX009 (ip), vehicle: saline.
The mark [4] stands for this setting: dose: 120.0 mg/kg/injection, schedule: Q01DX005 (ip), vehicle: saline with Tween-80.
Where [5] appears, read: dose: 240.0 mg/kg/injection, schedule: Q01DX005 (ip), vehicle: saline with Tween-80.
The mark [6] stands for this setting: dose: 50.0 mg/kg/injection, schedule: Q01DX005 (ip), vehicle: Klucel (hydroxypropylcellulose) (HPC).
Where [7] appears, read: dose: 100.0 mg/kg/injection, schedule: Q01DX005 (ip), vehicle: Klucel (hydroxypropylcellulose) (HPC).
Setting [8] is: dose: 200.0 mg/kg/injection, schedule: Q01DX005 (ip), vehicle: Klucel (hydroxypropylcellulose) (HPC).
[9] abbreviates: dose: 25.0 mg/kg/injection, schedule: Q01DX009 (ip), vehicle: saline with Tween-80.
Where [10] appears, read: dose: 50.0 mg/kg/injection, schedule: Q01DX009 (ip), vehicle: saline with Tween-80.
Setting [11] is: dose: 100.0 mg/kg/injection, schedule: Q01DX009 (ip), vehicle: saline with Tween-80.
Where [12] appears, read: dose: 100.0 mg/kg/injection, schedule: Q01DX005 (ip), vehicle: saline with Tween-80.

In the case of `O=c1cccccc1O`, the T/C under setting [1] is 100 % of control [4 of 6 alive] and the T/C under setting [2] is 99, 100 [5 of 6 alive], 101 [5 of 6 alive], 104 % of control. Further, the survivor count under setting [1] is given as 2 of 6, 3 of 6, 4 of 6; the survivor count under setting [3] is 3 of 6; the survivor count (dose: 400.0 mg/kg/injection, schedule: Q01DX009 (ip), vehicle: saline) is listed as 0 of 6.

As for `C=CCN(CC=C)P(=O)(N1CC1C)N1CC1C` (centres undefined), the T/C (dose: 2.5 mg/kg/injection, schedule: Q01DX009 (ip), vehicle: saline) is 149 % of control. Moreover, the survivor count (dose: 10.0 mg/kg/injection, schedule: Q01DX009 (ip), vehicle: saline) is listed as 6 of 6 and the survivor count (dose: 20.0 mg/kg/injection, schedule: Q01DX009 (ip), vehicle: saline) was 4 of 6.

On to `CCOC(=O)C[N+]1(C)C2CCC1CC(OC(=O)C(CO)c1ccccc1)C2` (centres undefined), for which the survivor count is, setting by setting: under setting [1], 3 of 6 and 5 of 6; under setting [2], 0 of 6; under setting [3], 0 of 6.

On to `NCC(=O)c1ccc(O)c(O)c1`, for which the survivor count is 2 of 6 under setting [2]; 4 of 6 (dose: 200.0 mg/kg/injection, schedule: Q04DX003 (ip), vehicle: saline with Tween-80); 3 of 6 (dose: 400.0 mg/kg/injection, schedule: Q04DX003 (ip), vehicle: saline with Tween-80).

As for `COC1=C2CC(C)CC(OC)C(O)C(C)/C=C(\C)C(OC(N)=O)C(OC)/C=C\C=C(/C)C(=O)NC(=C(C=NC(C)(C)C)C1=O)C2=O` (centres undefined), the survivor count is 1 of 6 under setting [4] and 0 of 6 under setting [5].

With `N#CC(C#N)=CN1CCCCCC1`, the survivor count (dose: 25.0 mg/kg/injection, schedule: Q04DX003 (ip), vehicle: saline with Tween-80) is 5 of 6.

In the case of `CN(c1ccc(C2=NCCN2)cc1)S(=O)(=O)c1ccc(Oc2ccc(S(=O)(=O)N(C)c3ccc(C4=NCCN4)cc3)cc2)cc1`, the survivor count is, setting by setting: under setting [6], 0 of 5; under setting [7], 0 of 5; under setting [8], 0 of 5.

For `CC1OC(C)(C2CC2)OC1C` (centres undefined), the survivor count (dose: 400.0 mg/kg/injection, schedule: Q04DX003 (ip), vehicle: Klucel (hydroxypropylcellulose) (HPC)) is listed as 0 of 6.

With `CNC(=O)Oc1coc(CCl)cc1=O`, the T/C reads like this: under setting [9], 130 % of control; under setting [10], 130 % of control [5 of 6 alive]. Also, the survivor count under setting [11] is given as 1 of 6.

As for `O=C(Cn1cnc2c(=S)nc[nH]c21)Oc1ccc([N+](=O)[O-])cc1`, the survivor count (dose: 100.0 mg/kg/injection, schedule: Q04DX003 (ip), vehicle: saline with Tween-80) is recorded as 6 of 6.

For the compound `Cc1cc(Cl)cc2c1OCOC2`, the survivor count (dose: 200.0 mg/kg/injection, schedule: Q01DX009 (ip), vehicle: acetone) was 3 of 6.

`CN1CC2(c3ccccc3)CN(C)CC(c3ccccc3)(C1)C2=O`: the survivor count under setting [9] was 2 of 6.

`O=C(O)c1cc([N+](=O)[O-])ccc1Nc1ccccc1`: for the setting “dose: 12.5 mg/kg/injection, schedule: Q01DX009 (ip), vehicle: suspension in saline”, the survivor count is listed as 6 of 6.

Consider `c1ccc2c(c1)C1c3cccc[n+]3C2C2C1CC1C3c4ccccc4C(C12)[n+]1ccccc13` (centres undefined), for which the survivor count reads like this: (dose: 12.5 mg/kg/injection, schedule: Q01DX005 (ip), vehicle: saline with Tween-80) 3 of 6; (dose: 25.0 mg/kg/injection, schedule: Q01DX005 (ip), vehicle: saline with Tween-80) 0 of 6; (dose: 50.0 mg/kg/injection, schedule: Q01DX005 (ip), vehicle: saline with Tween-80) 0 of 6; under setting [12], 0 of 6; (dose: 200.0 mg/kg/injection, schedule: Q01DX005 (ip), vehicle: saline with Tween-80) 0 of 6.

Regarding `O=C(NCSC1=NCCS1)NCSC1=NCCS1`, the survivor count is recorded as 6 of 6 under setting [1] and 5 of 6 under setting [3].

For `CC(=O)CC(=O)c1ccc(F)cc1.CC(=O)CC(=O)c1ccc(F)cc1.[Cu]`, the survivor count was 0 of 6 (dose: 40.0 mg/kg/injection, schedule: Q01DX009 (ip), vehicle: saline with Tween-80); 0 of 6 under setting [10]; 0 of 6 under setting [11]; 0 of 6 (dose: 200.0 mg/kg/injection, schedule: Q01DX009 (ip), vehicle: saline with Tween-80).

Turning to `CC1=C(CCC(C)NCc2ccc(OCCCN3CCCCC3)cc2)C(C)(C)CCC1` (centres undefined), the survivor count reads like this: under setting [6], 0 of 5; under setting [7], 0 of 5; under setting [8], 0 of 5.

Take `CN1C(=O)N(C2CCCCC2)C(=O)C(C)(CN2CCCCC2)C1=O` (centres undefined): the survivor count (dose: 100.0 mg/kg/injection, schedule: Q01DX009 (sc), vehicle: saline with Tween-80) was 6 of 6.

Take `CCCCCCCCCCCCCCCCCC[N+](C)(C)C`: the T/C (dose: 6.25 mg/kg/injection, schedule: Q01DX009 (ip), vehicle: saline) is 127 % of control. In addition, the survivor count (dose: 12.5 mg/kg/injection, schedule: Q01DX009 (ip), vehicle: saline) is on record as 6 of 6.

On to `N#C[S-].N#C[S-].N#C[S-].N#C[S-].[Cr+6].[NH2-].[NH2-]`, for which the survivor count (dose: 100.0 mg/kg/injection, schedule: Q04DX003 (ip), vehicle: saline) was 3 of 6.

Take `CCCCCCC(=O)CCCCCCCCCCCCC(=O)OC`: the survivor count is 6 of 6 (dose: 12.5 mg/kg/injection, schedule: Q01DX009 (ip), vehicle: saline with Tween-80); 6 of 6 under setting [9]; 6 of 6 under setting [10].

`COc1cc(C2CC(=O)N(c3ccc(C)cc3)C(=O)C2)cc(OC)c1OC`: the T/C was 142 % of control (dose: 75.0 mg/kg/injection, schedule: Q01DX009 (ip), vehicle: Klucel + Tween-80) and 149 % of control (dose: 400.0 mg/kg/injection, schedule: Q01DX005 (ip), vehicle: Klucel + Tween-80).

For the compound `CS1=C2C(=O)CCCC2=Nc2ccccc21` (centres undefined), the survivor count (dose: 200.0 mg/kg/injection, schedule: Q01DX005 (ip), vehicle: saline) is on record as 0 of 6.

With `C[C-]=O.C[C-]=O.[C-]#[O+].[C-]#[O+].[C-]#[O+].[C-]#[O+].[Re]`, the survivor count is 0 of 5 under setting [6], 2 of 5 under setting [7] and 0 of 5 under setting [8].

Turning to `C1C[S][Hg][S]CCO1`, the survivor count reads like this: (dose: 25.0 mg/kg/injection, schedule: Q01DX009 (ip), vehicle: suspension in saline) 0 of 6; under setting [1], 1 of 6; under setting [2], 2 of 6; under setting [3], 4 of 6.

Regarding `CC(O)CNC1=C(Cl)C(=O)c2ccccc2C1=O` (centres undefined), the survivor count (dose: 400.0 mg/kg/injection, schedule: Q01DX009 (ip), vehicle: distilled water + Tween-80) is 4 of 6.

On to `O=C1SC(=NC2CCCCC2)N(C2CCCCC2)/C1=C1\C(=O)SC(=NC2CCCCC2)N1C1CCCCC1`, for which the survivor count was 6 of 6 (2×) (dose: 60.0 mg/kg/injection, schedule: Q01DX005 (ip), vehicle: saline with Tween-80); 6 of 6 under setting [4]; 6 of 6 under setting [5].

Take `N#CC1=CC2C3C(=O)N(c4ccccc4)C(=O)C3C1N(Cc1ccccc1)C2c1ccccc1` (centres undefined): the survivor count runs as follows: under setting [12], 6 of 6; (dose: 100.0 mg/kg/injection, schedule: Q04DX002 (ip), vehicle: saline with Tween-80) 6 of 6.

For `CC1=NN(c2ccccc2)C(=O)C1C1c2ccccc2S(=O)(=O)c2ccccc21` (centres undefined), the survivor count (dose: 240.0 mg/kg/injection, schedule: Q01DX005 (ip), vehicle: Klucel (hydroxypropylcellulose) (HPC)) is 6 of 6.

For `c1cc[c]([Bi]([c]2ccccc2)[c]2ccccc2)cc1`, the T/C (dose: 50.0 mg/kg/injection, schedule: Q01DX009 (ip), vehicle: Klucel (hydroxypropylcellulose) (HPC)) is 133 % of control. In addition, the survivor count (dose: 100.0 mg/kg/injection, schedule: Q01DX009 (ip), vehicle: Klucel (hydroxypropylcellulose) (HPC)) is given as 6 of 6; the survivor count (dose: 200.0 mg/kg/injection, schedule: Q01DX009 (ip), vehicle: Klucel (hydroxypropylcellulose) (HPC)) was 3 of 6 and 4 of 6.
